3 sequences from paper PMC4822050, “Hemi-methylated DNA opens a closed conformation of UHRF1 to facilitate its histone recognition” (Nature Communications, 2016) can be followed below.

Chains of the proteins cited; added tags and fusions are not shown. Residues count along the entry.
UniProt Q96T88, 414-617: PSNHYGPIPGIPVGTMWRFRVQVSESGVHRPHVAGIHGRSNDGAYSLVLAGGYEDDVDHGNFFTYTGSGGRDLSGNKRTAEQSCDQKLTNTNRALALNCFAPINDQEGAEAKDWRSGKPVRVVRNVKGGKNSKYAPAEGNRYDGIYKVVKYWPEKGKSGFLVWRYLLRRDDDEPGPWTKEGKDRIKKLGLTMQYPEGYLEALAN
UniProt Q96T88, 587-674: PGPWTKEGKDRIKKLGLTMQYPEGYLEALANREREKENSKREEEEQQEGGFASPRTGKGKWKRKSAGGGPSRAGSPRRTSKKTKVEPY
UniProt Q96T88, 414-674: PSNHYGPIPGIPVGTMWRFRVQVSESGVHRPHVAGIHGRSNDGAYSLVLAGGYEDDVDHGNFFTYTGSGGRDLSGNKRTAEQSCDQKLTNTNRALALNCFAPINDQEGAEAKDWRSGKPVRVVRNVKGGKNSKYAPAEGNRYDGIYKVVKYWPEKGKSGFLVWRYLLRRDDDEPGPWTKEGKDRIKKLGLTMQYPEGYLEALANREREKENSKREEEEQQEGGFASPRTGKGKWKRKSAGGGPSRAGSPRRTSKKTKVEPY

Series [1] has as its target SRA (human) (UniProt Q96T88). The experiment in a line: FP. As to conditions: 5-methyl-dC at position 6 of strand 2 (GTCAGXGCATGG), recombinant protein, residues 414-617, protein details: GST tag cleaved (PreScission), label: FAM on strand 1.
Series [2] deals with UHRF1 full-length (human) (UniProt Q96T88). Nature of the series: pull-down. As to conditions: without histone peptide; 5-methyl-dC at position 6 of strand 1 (GAGGCXGCCTGC); pull-down: 20 mM HEPES-NaOH pH 8.0, 100 mM NaCl, 5% glycerol, 0.1% Triton X-100, 4 C; recombinant protein; residues 1-793; protein details: GST tag cleaved (PreScission); label: 5' biotin on strand 2.
A further series concerns the target Spacer (human) (UniProt Q96T88). The experiment in a line: ITC. As to conditions: no interaction; 5-methyl-dC at position 6 of strand 1 (GGGCCXGCAGGG); ITC: 10 mM HEPES pH 8.0, 100 mM NaCl, 18 C; recombinant protein; residues 587-674; protein details: GST tag cleaved (PreScission).
The target in another series is SRA-Spacer (human) (UniProt Q96T88). The experiment in a line: ITC. As to conditions: 5-methyl-dC at position 6 of strand 1 (GGGCCXGCAGGG); ITC: 10 mM HEPES pH 8.0, 100 mM NaCl, 18 C; recombinant protein; residues 414-674; protein details: GST tag cleaved (PreScission).
Series [3] addresses SRA (human) (UniProt Q96T88). Nature of the series: ITC. The note with it: 5-methyl-dC at position 6 of strand 1 (GGGCCXGCAGGG); ITC: 10 mM HEPES pH 8.0, 100 mM NaCl, 18 C; recombinant protein; residues 414-617; protein details: GST tag cleaved (PreScission).

Construct, isoform or probe ends are uncertain for at least one entry. For part of these data: A negative result means that nothing was seen under these conditions. For part of these data: At least one verdict rests on a figure or table, not on a statement of the authors.

As to “CCATGCGCTGAC (double strand) [FAM-12bp-HM-DNA]”, the Kd (commonly a measure of binding affinity in units of concentration) amounted to 5.92 µM with SRA (human) [1] (150 mM NaCl) and 12.8 µM with SRA (human) [1] (DNA length series).

On to “GAGGCCGCCTGC (double strand) [biotin-hm-DNA 12 bp (pull-down)]”, for which the binding result in series [2] is listed as “binds”.

For the sequence “GGGCCCGCAGGG (double strand) [12-bp hm-DNA (ITC)]”, the binding result with Spacer (human) was “no binding”. Moreover, the Kd with SRA-Spacer (human) is 1.75 µM; with SRA (human) [3], 25.1 µM.
